Reference: paper PMC8903684

Biological target: T1, Transmembrane protein 43 (TMEM43), endogenous (human (endogenous in MIAPaCa-2 and SW1990)) (UniProt Q9BTV4)
T1 sequence: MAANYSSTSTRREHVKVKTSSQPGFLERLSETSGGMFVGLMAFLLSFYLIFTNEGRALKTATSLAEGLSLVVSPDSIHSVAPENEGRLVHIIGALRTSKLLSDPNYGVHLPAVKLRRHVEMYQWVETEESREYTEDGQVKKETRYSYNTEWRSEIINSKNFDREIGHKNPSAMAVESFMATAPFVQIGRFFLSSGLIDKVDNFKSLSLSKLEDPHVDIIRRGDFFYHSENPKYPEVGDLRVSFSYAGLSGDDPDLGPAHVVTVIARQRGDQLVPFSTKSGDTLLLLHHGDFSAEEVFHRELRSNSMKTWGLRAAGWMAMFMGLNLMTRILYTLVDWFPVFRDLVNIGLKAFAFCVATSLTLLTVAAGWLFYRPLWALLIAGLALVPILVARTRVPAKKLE
Experiment: affinity purification with mass spectrometry; co-IP of TMEM43 from MIAPaCa-2 cell lysate (RIPA lysis buffer, 200 ug protein), washed five times with PBS, SDS-PAGE, mass spectrometry

binding: binds
B1: Pre-mRNA processing factor 3 (PRPF3), endogenous (protein, UniProt O43395 1-683)
chain: MALSKRELDELKPWIEKTVKRVLGFSEPTVVTAALNCVGKGMDKKKAADHLKPFLDDSTLRFVDKLFEAVEEGRSSRHSKSSSDRSRKRELKEVFGDDSEISKESSGVKKRRIPRFEEVEEEPEVIPGPPSESPGMLTKLQIKQMMEAATRQIEERKKQLSFISPPTPQPKTPSSSQPERLPIGNTIQPSQAATFMNDAIEKARKAAELQARIQAQLALKPGLIGNANMVGLANLHAMGIAPPKVELKDQTKPTPLILDEQGRTVDATGKEIELTHRMPTLKANIRAVKREQFKQQLKEKPSEDMESNTFFDPRVSIAPSQRQRRTFKFHDKGKFEKIAQRLRTKAQLEKLQAEISQAARKTGIHTSTRLALIAPKKELKEGDIPEIEWWDSYIIPNGFDLTEENPKREDYFGITNLVEHPAQLNPPVDNDTPVTLGVYLTKKEQKKLRRQTRREAQKELQEKVRLGLMPPPEPKVRISNLMRVLGTEAVQDPTKVEAHVRAQMAKRQKAHEEANAARKLTAEQRKVKKIKKLKEDISQGVHISVYRVRNLSNPAKKFKIEANAGQLYLTGVVVLHKDVNVVVVEGGPKAQKKFKRLMLHRIKWDEQTSNTKGDDDEESDEEAVKKTNKCVLVWEGTAKDRSFGEMKFKQCPTENMAREHFKKHGAEHYWDLALSESVLESTD

Results are given in words; binding and its absence hold for the method and conditions named. In cells and extracts the contact can be indirect. A yes stands for co-enrichment or nearness to the bait. Other partners may have been found.
